Series [1] deals with HinP1I restriction endonuclease (UniProt Q5I6E6). The experiment in a line: enzyme reaction in vitro. As to conditions: purified recombinant protein, protein details: New England Biolabs.
Series [2] has as its system HhaI restriction endonuclease. Nature of the series: enzyme reaction in vitro. As to conditions: no HhaI site; stays intact, used as control locus; purified recombinant protein.

A negative result means that nothing was seen under these conditions. For some of these results: The exact form of at least one protein or probe is not confirmed.

As to “AGACTAACTTTTCTCTTGTACAGAATCATCAGGCTAAATTTTTGGCATTATTTCAGTCCT (double strand) [control locus without HhaI/HinP1I site]”, the functional effect entry is “not active” in series [1] (no recognition site, internal reference stays intact) and “not active” in series [2]. For “AGTAGCGCCCACTGAGCGGTTTTTCAGTTGCTGCACCGTTCTTAGCGCCCAACGGAACGTTTCCCGTACGCGGAGTCCATAAGTT (double strand) [chr5 test locus, methylated HCT-15 genomic DNA]”, in series [1] (5mC at CpG (bisulfite sequencing), CutSmart, 37 C 2 h, methylated locus protected, amplified in 34/34 replicates), the functional effect entry was “not active”. Take “AGTAGCGCCCACTGAGCGGTTTTTCAGTTGCTGCACCGTTCTTAGCGCCCAACGGAACGTTTCCCGTACGCGGAGTCCATAAGTT (double strand) [chr5 test locus, unmethylated plasmid insert]”: the functional effect entry in series [1] (CutSmart, 37 C 2 h, no amplification in 34/34 replicates after digestion) is on record as “active”.

The values above are taken from patent US20230220458.
